Data as given in the supplement of paper PMC10849652.
The list shows a part of the results.

The chains behind the UniProt entries cited, without tags or fusion partners. Where a name states a change or a piece, a line headed by the entry shows the natural chain unless it says otherwise.
UniProt Q92598: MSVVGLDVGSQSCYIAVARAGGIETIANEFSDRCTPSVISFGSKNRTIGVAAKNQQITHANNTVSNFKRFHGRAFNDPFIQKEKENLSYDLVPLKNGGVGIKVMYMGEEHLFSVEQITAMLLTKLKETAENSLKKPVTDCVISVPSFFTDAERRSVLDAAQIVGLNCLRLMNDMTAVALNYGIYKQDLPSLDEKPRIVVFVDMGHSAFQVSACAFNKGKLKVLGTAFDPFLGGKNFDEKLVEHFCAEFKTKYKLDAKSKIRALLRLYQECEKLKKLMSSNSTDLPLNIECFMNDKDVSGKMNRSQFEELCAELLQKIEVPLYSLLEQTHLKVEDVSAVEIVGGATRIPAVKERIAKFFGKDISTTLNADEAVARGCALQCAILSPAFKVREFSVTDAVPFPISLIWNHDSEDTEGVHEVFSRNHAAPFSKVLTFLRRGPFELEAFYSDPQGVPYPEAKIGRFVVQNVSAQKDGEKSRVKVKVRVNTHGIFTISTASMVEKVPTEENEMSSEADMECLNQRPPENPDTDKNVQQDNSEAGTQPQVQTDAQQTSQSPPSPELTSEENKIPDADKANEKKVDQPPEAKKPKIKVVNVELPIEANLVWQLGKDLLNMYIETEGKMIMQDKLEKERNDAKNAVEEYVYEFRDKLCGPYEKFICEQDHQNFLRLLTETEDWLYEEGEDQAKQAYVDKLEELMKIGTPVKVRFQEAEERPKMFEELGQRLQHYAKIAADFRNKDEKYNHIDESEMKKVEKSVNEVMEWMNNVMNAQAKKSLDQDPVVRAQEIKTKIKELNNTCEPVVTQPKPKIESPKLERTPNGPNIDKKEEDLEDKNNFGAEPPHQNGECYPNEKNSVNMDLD
UniProt Q14103: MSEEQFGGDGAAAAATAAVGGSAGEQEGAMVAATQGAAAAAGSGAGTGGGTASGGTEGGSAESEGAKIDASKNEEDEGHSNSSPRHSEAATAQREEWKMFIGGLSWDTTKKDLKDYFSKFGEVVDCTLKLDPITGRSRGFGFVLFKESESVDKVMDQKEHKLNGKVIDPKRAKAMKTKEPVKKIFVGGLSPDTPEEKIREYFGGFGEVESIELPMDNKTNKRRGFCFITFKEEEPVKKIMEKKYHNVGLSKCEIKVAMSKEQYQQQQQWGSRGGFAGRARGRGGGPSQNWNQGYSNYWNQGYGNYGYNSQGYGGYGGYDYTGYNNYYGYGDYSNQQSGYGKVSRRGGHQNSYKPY
UniProt P35914: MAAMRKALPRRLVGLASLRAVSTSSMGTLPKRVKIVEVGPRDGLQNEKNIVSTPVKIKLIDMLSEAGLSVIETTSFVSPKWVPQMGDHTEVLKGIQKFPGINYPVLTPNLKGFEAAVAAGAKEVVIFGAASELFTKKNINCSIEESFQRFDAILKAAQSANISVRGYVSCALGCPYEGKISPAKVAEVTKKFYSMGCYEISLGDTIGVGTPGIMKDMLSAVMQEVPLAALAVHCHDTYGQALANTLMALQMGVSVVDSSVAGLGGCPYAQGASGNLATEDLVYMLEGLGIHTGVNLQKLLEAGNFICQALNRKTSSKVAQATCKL
UniProt Q6DN03, whole entry, looked up: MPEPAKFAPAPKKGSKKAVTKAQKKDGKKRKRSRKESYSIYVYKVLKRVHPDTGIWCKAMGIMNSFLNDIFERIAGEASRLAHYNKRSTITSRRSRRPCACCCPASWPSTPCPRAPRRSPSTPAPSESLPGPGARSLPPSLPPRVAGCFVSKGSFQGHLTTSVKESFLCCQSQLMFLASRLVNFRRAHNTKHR
UniProt Q9BTY7: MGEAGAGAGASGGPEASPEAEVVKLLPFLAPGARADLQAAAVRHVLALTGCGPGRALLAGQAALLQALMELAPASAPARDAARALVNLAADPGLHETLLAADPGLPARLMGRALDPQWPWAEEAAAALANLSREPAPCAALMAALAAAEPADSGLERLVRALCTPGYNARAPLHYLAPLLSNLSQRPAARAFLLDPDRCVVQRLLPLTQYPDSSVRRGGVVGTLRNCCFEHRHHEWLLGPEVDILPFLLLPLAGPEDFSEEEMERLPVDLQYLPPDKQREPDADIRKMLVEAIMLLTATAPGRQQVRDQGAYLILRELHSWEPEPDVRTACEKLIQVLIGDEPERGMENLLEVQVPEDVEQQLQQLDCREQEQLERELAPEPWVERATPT
UniProt P0DMV8, whole entry, looked up: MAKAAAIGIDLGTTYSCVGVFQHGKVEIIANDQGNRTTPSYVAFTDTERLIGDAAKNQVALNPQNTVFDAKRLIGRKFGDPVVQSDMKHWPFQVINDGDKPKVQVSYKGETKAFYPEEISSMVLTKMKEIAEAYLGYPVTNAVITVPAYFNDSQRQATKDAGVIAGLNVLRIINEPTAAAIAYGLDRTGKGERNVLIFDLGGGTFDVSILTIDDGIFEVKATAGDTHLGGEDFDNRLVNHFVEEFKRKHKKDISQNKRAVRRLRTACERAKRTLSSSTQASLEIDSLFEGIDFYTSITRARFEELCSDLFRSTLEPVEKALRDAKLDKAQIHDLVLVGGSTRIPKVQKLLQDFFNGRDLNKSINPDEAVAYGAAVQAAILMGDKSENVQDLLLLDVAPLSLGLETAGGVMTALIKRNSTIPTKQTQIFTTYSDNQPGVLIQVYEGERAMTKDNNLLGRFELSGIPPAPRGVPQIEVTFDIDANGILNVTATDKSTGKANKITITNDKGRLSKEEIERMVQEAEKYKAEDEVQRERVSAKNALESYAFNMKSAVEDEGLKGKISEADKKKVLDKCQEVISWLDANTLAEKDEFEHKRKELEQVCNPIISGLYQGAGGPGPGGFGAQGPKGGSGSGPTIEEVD
UniProt P14735, whole entry, looked up: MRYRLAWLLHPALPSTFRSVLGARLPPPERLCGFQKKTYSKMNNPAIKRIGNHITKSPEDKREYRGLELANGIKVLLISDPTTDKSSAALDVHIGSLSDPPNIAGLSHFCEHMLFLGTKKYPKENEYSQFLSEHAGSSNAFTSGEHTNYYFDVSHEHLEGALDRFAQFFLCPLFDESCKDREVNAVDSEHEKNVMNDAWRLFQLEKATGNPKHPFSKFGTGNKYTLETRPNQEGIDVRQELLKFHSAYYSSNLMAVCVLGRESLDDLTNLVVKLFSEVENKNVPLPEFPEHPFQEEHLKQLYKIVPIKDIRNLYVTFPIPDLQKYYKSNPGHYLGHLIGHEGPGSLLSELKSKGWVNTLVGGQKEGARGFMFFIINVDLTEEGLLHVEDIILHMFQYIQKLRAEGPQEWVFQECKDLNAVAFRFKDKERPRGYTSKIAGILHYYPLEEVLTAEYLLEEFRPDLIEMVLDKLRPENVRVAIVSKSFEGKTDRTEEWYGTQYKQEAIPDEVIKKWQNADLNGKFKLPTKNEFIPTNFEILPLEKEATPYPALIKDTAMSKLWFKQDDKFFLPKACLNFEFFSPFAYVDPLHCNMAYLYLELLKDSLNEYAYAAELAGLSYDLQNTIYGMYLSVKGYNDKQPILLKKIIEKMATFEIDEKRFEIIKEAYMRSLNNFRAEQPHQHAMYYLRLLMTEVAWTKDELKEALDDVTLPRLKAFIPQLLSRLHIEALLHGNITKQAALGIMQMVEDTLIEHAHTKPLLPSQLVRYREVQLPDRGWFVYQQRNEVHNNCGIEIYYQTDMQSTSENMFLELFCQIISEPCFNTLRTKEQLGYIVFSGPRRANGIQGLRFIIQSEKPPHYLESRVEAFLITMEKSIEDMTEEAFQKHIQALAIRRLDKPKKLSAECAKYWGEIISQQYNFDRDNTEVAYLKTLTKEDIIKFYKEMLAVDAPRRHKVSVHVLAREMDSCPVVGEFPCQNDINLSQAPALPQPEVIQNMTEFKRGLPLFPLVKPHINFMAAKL
UniProt Q9NZL4: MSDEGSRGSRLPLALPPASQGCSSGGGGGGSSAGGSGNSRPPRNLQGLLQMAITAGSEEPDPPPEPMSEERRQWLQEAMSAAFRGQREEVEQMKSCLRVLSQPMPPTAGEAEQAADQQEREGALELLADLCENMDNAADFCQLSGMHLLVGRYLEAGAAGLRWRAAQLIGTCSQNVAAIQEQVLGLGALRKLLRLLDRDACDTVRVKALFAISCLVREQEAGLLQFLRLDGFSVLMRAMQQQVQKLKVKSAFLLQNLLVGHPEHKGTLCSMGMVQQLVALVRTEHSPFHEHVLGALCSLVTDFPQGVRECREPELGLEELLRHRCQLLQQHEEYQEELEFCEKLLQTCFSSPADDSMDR
UniProt O75330: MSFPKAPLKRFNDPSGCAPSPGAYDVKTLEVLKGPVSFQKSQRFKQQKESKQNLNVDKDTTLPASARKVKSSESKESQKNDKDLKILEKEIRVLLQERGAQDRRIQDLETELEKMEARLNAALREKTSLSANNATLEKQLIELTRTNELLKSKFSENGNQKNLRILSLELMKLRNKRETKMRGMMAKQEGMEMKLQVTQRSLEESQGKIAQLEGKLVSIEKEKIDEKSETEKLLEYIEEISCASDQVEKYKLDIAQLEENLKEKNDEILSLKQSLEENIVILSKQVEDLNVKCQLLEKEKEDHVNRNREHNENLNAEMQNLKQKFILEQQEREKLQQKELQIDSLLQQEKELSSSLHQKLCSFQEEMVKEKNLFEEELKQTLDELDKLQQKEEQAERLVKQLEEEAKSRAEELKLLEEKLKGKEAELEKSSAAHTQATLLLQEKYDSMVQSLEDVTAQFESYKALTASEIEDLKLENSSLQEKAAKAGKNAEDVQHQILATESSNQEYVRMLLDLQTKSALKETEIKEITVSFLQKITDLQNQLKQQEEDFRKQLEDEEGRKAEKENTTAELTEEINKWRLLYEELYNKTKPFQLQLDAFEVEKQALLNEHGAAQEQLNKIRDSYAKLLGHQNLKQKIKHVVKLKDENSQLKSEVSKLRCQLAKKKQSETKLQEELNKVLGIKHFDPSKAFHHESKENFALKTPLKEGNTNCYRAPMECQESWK
UniProt P09651: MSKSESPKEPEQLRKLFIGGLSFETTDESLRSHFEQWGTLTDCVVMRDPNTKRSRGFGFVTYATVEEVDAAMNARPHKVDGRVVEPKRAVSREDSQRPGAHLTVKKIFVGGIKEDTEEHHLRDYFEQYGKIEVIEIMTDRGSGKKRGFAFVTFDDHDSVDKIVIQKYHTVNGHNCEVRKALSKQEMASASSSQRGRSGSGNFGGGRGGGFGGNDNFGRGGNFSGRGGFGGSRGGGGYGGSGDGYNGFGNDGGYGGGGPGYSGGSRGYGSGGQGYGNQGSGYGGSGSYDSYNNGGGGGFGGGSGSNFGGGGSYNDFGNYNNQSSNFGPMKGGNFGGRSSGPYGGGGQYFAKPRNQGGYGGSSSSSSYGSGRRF
UniProt Q58FG1, whole entry, looked up: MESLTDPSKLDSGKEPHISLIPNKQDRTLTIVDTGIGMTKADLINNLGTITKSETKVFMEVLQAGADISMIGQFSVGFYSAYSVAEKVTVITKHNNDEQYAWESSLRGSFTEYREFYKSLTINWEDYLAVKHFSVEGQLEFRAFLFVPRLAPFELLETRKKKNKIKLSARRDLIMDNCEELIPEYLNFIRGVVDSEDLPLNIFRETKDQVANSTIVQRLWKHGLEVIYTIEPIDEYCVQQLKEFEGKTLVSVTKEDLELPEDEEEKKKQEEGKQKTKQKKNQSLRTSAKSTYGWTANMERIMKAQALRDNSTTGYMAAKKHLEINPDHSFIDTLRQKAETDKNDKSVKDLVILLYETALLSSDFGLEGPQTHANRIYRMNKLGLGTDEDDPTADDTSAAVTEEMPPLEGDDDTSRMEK
UniProt P61604, whole entry, looked up: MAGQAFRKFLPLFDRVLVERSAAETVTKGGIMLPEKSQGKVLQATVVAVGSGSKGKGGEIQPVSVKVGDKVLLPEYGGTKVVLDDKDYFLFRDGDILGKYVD
UniProt P54868: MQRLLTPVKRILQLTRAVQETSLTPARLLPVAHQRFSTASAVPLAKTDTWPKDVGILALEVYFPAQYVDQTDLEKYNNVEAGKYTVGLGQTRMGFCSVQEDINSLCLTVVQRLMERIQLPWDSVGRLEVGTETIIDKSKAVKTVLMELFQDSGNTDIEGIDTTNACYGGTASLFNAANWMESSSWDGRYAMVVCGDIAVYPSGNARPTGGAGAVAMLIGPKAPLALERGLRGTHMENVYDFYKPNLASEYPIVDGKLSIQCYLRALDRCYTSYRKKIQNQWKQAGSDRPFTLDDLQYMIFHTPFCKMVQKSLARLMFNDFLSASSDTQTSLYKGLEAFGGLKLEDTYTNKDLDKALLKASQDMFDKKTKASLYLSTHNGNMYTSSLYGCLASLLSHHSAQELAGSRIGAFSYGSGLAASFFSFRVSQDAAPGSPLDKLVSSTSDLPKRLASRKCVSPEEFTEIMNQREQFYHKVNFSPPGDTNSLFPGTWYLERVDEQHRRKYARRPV
UniProt Q15651: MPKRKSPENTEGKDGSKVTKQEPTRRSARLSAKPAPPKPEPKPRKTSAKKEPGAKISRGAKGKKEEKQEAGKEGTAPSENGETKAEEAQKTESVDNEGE

Tests used:
Assay in all cases: log2 fold change, soluble protein after heating vs DMSO (PISA); higher = thermal stabilisation; K562 cells, 10 uM, 30 min; active = over 0.2 and 3.5 SD of the protein, either way, in both replicates (recomputed)
[1] = compound: CC1=C(C=C(C=C1)NC(=O)C2=CC(=CC=C2)C(C)(C)C#N)NC3=CC4=C(C=C3)N=CN(C4=O)C
Summary of the method: (§1)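 K562 cells (2×10^6 cells/mL) were treated with 10 μM compound for 30 min, and aliquots were heated for 3 min over 48°C-58°C. Pooled aliquots were extracted in PBS with 0.5% NP-40 at 4°C, and the supernatant after 21,000xg for 90 min was measured by TMTpro 16plex LC-MS/MS with channel sums equalised. Reported thermal stability, relative to control samples and from duplicates, is a log2 fold change.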

[2] = compound: CC1=C(C=C(C=C1)NC(=O)C2=CC(=CC=C2)N(C)C)NC(=O)C3=CC=C(C=C3)O
Summary of the method: as §1

[3] = compound: CC1=CC=C(C=C1)SC2=C3C=C(SC3=CN=C2)C(=O)N
Summary of the method: as §1

[4] = compound: CC1=NC(=CC=C1)C2=C(N=C(N2)C(C)(C)C)C3=CC4=NC=CN=C4C=C3
Summary of the method: as §1

Nexturastat A = compound: CCCCN(Cc1ccc(C(=O)NO)cc1)C(=O)Nc1ccccc1 [Nexturastat A]
Summary of the method: as §1

vemurafenib = compound: CCCS(=O)(=O)Nc1ccc(F)c(C(=O)c2c[nH]c3ncc(-c4ccc(Cl)cc4)cc23)c1F [vemurafenib]
Summary of the method: as §1

[5] = compound: CCCS(=O)(=O)Nc1ccc(F)c(C(=O)c2c[nH]c3ncc(Cl)cc23)c1F
Summary of the method: as §1

[6] = compound: CCCc1cc(C)[nH]c(=O)c1CNC(=O)c1cc(-c2ccnc(N3CCN(C)CC3)c2)cc2c1cnn2C(C)C
Summary of the method: as §1

givinostat = compound: CCN(CC)Cc1ccc2cc(COC(=O)Nc3ccc(C(=O)NO)cc3)ccc2c1 [givinostat]
Summary of the method: as §1

barasertib = compound: CCN(CCCOc1ccc2c(Nc3cc(CC(=O)Nc4cccc(F)c4)[nH]n3)ncnc2c1)CCOP(=O)(O)O [barasertib]
Summary of the method: as §1

[7] = compound: CC[C@@H]1C(=O)N(C)c2cnc(Nc3ccc(C(=O)NC4CCN(C)CC4)cc3OC)nc2N1C1CCCC1
Summary of the method: as §1

volasertib = compound: CC[C@@H]1C(=O)N(C)c2cnc(Nc3ccc(C(=O)N[C@H]4CC[C@H](N5CCN(CC6CC6)CC5)CC4)cc3OC)nc2N1C(C)C [volasertib]
Summary of the method: as §1

[8] = compound: CC[C@H](C)N1C=C(C2=C(C=C(C=C21)C3=CN=C(C=C3)N4CCNCC4)C(=O)NCC5=C(C=C(NC5=O)C)C)C
Summary of the method: as §1

epoxomicin = compound: CC[C@H](C)[C@@H](C(=O)N[C@@H]([C@@H](C)O)C(=O)N[C@@H](CC(C)C)C(=O)[C@]1(CO1)C)NC(=O)[C@H]([C@@H](C)CC)N(C)C(=O)C [epoxomicin]
Summary of the method: as §1

[9] = compound: CCn1c(C(=O)N(C2CC2)C2CC2)cc2c3c(ncn3C)c(Nc3cc(C)n(C)n3)nc21
Summary of the method: as §1

[10] = compound: CCn1cc(-c2ccnc3[nH]c(-c4cccc(CN(C)C)c4)cc23)c(-c2ccc(NC(=O)N(C)C)cc2)n1
Summary of the method: as §1

[11] = compound: CN(C)CC(=O)Nc1ccc2[nH]c(=O)c3ccccc3c2c1
Summary of the method: as §1

rosiglitazone = compound: CN(CCOC1=CC=C(C=C1)C[C@H]2C(=O)NC(=O)S2)C3=CC=CC=N3 (racemic) [rosiglitazone]
Summary of the method: as §1

[12] = compound: CN1C2=C(C3=C1C(=O)N(N=C3)CC4=CC(=CC=C4)N)SC(=C2)S(=O)C
Summary of the method: as §1

[13] = compound: CN1CCC(CNc2ccc3ncc(-c4cccc(OC(F)(F)F)c4)n3n2)CC1
Summary of the method: as §1

Measured: log2 fold change

HSPH1 (UniProt Q92598)
inactive: [1] 0.025 | [2] -0.063 | [3] -0.002 | [4] 0.045 | Nexturastat A 0.033 | vemurafenib 0.028 | [5] 0.032 | [6] 0.025 | givinostat 0.003 | barasertib 0.053 | [7] -0.126 | volasertib -0.215 | [8] 0.037 | epoxomicin 0.04 | [9] 0.009 | [10] -0.008 | [11] 0.014 | rosiglitazone 0.013 | [12] -0.035 | [13] -0.016

HSDL2 (UniProt Q6YN16)
inactive: [1] 0.023 | [2] -0.104 | [3] 0.072 | [4] 0.041 | Nexturastat A -0.044 | vemurafenib 0.02 | [5] 0.104 | [6] 0.032 | givinostat 0.013 | barasertib 0.048 | [7] -0.015 | volasertib -0.115 | [8] 0.057 | epoxomicin 0.077 | [9] 0.013 | [10] -0.148 | [11] 0.017 | rosiglitazone 0.09 | [12] -0.055 | [13] -0.129

HSPA9 (UniProt P38646)
inactive: [1] -0.05 | [2] 0.017 | [3] -0.001 | [4] 0.003 | Nexturastat A -0.072 | vemurafenib -0.046 | [5] -0.023 | [6] 0.048 | givinostat 0 | barasertib 0.004 | [7] -0.07 | volasertib 0.022 | [8] -0.033 | epoxomicin 0.028 | [9] 0.025 | [10] 0.063 | [11] -0.014 | rosiglitazone -0.011 | [12] -0.038 | [13] 0.007

HP (UniProt P00738)
inactive: [1] -0.603

HNRNPD (UniProt Q14103)
inactive: [1] 0.056 | [2] 0.04 | [3] -0.092 | [4] -0.054 | Nexturastat A 0.099 | vemurafenib -0.053 | [5] -0.028 | [6] 0.035 | givinostat -0.09 | barasertib -0.045 | [7] 0.122 | volasertib 0.188 | [8] -0.016 | epoxomicin -0.185 | [9] -0.06 | [10] 0.19 | [11] -0.064 | rosiglitazone -0.076 | [12] 0.138 | [13] 0.18

HMGCL (UniProt P35914)
inactive: [1] 0.009 | [2] 0.02 | [3] 0 | [4] 0.047 | Nexturastat A -0.005 | vemurafenib 0.019 | [5] -0.031 | [6] -0.067 | givinostat -0.037 | barasertib 0.022 | [7] 0.03 | volasertib 0.002 | [8] 0.011 | epoxomicin 0.042 | [9] 0.012 | [10] -0.131 | [11] -0.015 | rosiglitazone -0.047 | [12] -0.035 | [13] 0.005

HIST2H2BC (UniProt Q6DN03)
inactive: [1] -0.132 | [2] -0.047 | [3] -0.298 | [4] -0.035 | Nexturastat A 0.727 | vemurafenib -0.252 | [5] 0.2 | [6] 0.324 | givinostat 0.351 | barasertib -0.124 | [7] 0.023 | volasertib 0.145 | [8] -0.1 | epoxomicin -0.221 | [9] 0.058 | [10] 0.395 | [11] -0.184 | rosiglitazone -0.249 | [12] 0.488 | [13] 0.196

HGH1 (UniProt Q9BTY7)
inactive: [1] 0.002 | [2] -0.038 | [3] 0.083 | [4] -0.001 | Nexturastat A 0.284 | vemurafenib 0.023 | [5] 0.022 | [6] 0.129 | givinostat 0.053 | barasertib 0.051 | [7] -0.055 | volasertib -0.221 | [8] 0.075 | epoxomicin 0.032 | [9] -0.137 | [10] 0.036 | [11] -0.106 | rosiglitazone 0.111 | [12] 0.144 | [13] -0.026

HSPA1A (UniProt P0DMV8)
inactive: [1] -0.008 | [2] -0.002 | [3] -0.07 | [4] 0.005 | Nexturastat A 0.008 | vemurafenib 0.007 | [5] -0.079 | [6] 0.221 | givinostat -0.036 | barasertib 0.034 | [7] -0.041 | volasertib 0.115 | [8] -0.014 | epoxomicin -0.002 | [9] 0.012 | [10] 0.013 | [11] -0.038 | rosiglitazone -0.026 | [12] 0.026 | [13] 0.035

IDE (UniProt P14735)
inactive: [1] 0.003 | [2] -0.084 | [3] 0.045 | [4] 0.008 | Nexturastat A 0.015 | vemurafenib 0.044 | [5] 0.026 | [6] -0.036 | givinostat 0.038 | barasertib 0.032 | [7] 0.056 | volasertib -0.063 | [8] 0.073 | epoxomicin 0.081 | [9] -0.088 | [10] -0.077 | [11] 0.043 | rosiglitazone 0.055 | [12] 0.042 | [13] -0.053

HSPBP1 isoform 3 (UniProt Q9NZL4)
inactive: [1] 0.029 | [2] -0.011 | [3] 0.011 | [4] 0.007 | Nexturastat A -0.02 | vemurafenib 0.086 | [5] 0.095 | [6] -0.004 | givinostat 0.038 | barasertib 0.056 | [7] -0.069 | volasertib -0.169 | [8] 0.03 | epoxomicin 0.033 | [9] 0.024 | [10] -0.015 | [11] 0.025 | rosiglitazone 0.023 | [12] -0.052 | [13] 0.052

Taken from above (2 entries):
IDE (UniProt P14735)
inactive: [1] 0.003 | [2] -0.084 | [3] 0.045 | [4] 0.008 | Nexturastat A 0.015 | vemurafenib 0.044 | [5] 0.026 | [6] -0.036 | givinostat 0.038 | barasertib 0.032 | [7] 0.056 | volasertib -0.063 | [8] 0.073 | epoxomicin 0.081 | [9] -0.088 | [10] -0.077 | [11] 0.043 | rosiglitazone 0.055 | [12] 0.042 | [13] -0.053

HSPBP1 isoform 3 (UniProt Q9NZL4)
inactive: [1] 0.029 | [2] -0.011 | [3] 0.011 | [4] 0.007 | Nexturastat A -0.02 | vemurafenib 0.086 | [5] 0.095 | [6] -0.004 | givinostat 0.038 | barasertib 0.056 | [7] -0.069 | volasertib -0.169 | [8] 0.03 | epoxomicin 0.033 | [9] 0.024 | [10] -0.015 | [11] 0.025 | rosiglitazone 0.023 | [12] -0.052 | [13] 0.052

Following part

HMMR isoform 3 (UniProt O75330)
inactive: [1] -0.006 | [2] -0.042 | [3] -0.013 | [4] -0.026 | Nexturastat A 0.103 | vemurafenib 0.045 | [5] 0.013 | [6] 0.037 | givinostat 0.042 | barasertib 0.039 | [7] -0.014 | volasertib -0.211 | [8] 0.043 | epoxomicin 0.041 | [9] -0.054 | [10] -0.006 | [11] 0.021 | rosiglitazone 0.058 | [12] 0.072 | [13] -0.075

HNRNPA1 (UniProt P09651)
inactive: [1] 0.001 | [2] 0.021 | [3] -0.083 | [4] -0.127 | Nexturastat A 0.211 | vemurafenib -0.059 | [5] -0.061 | [6] 0.092 | givinostat 0.019 | barasertib -0.115 | [7] 0.217 | volasertib 0.144 | [8] -0.01 | epoxomicin -0.334 | [9] -0.068 | [10] 0.259 | [11] -0.112 | rosiglitazone -0.154 | [12] 0.276 | [13] 0.264

HSP90AA4P (UniProt Q58FG1)
inactive: [1] -0.126 | [2] 0.002 | [3] -0.21 | [4] -0.039 | Nexturastat A 0.014 | vemurafenib -0.207 | [5] -0.121 | [6] -0.258 | givinostat 0.038 | barasertib 0.106 | [7] 0.08 | volasertib -0.147 | [8] -0.013 | epoxomicin -0.105 | [9] -0.005 | [10] 0.011 | [11] -0.149 | rosiglitazone 0.088 | [12] -0.01 | [13] -0.176

HSPE1 (UniProt P61604)
inactive: [1] -0.024 | [2] -0.024 | [3] 0.019 | [4] -0.015 | Nexturastat A -0.07 | vemurafenib -0.053 | [5] -0.068 | [6] -0.03 | givinostat -0.06 | barasertib 0.016 | [7] 0.018 | volasertib 0.202 | [8] -0.05 | epoxomicin 0.001 | [9] 0.041 | [10] 0.009 | [11] -0.054 | rosiglitazone -0.019 | [12] -0.007 | [13] 0.063

HMGCS2 (UniProt P54868)
inactive: [1] 0.033

HNRNPH3 (UniProt P31942)
inactive: [1] 0.035 | [2] -0.001 | [3] -0.12 | [4] -0.03 | Nexturastat A 0.349 | vemurafenib 0.007 | [5] 0.284 | [6] 0.108 | givinostat 0.226 | barasertib -0.061 | [7] -0.035 | volasertib 0.07 | [8] 0.085 | epoxomicin -0.168 | [9] -0.237 | [10] 0.174 | [11] 0.149 | rosiglitazone -0.258 | [12] 0.455 | [13] 0.124

HMGN3 (UniProt Q15651)
inactive: [1] 0.011 | [2] -0.048 | [3] -0.016 | [4] 0.11 | Nexturastat A 0.162 | vemurafenib 0.031 | [5] 0.085 | [6] -0.029 | givinostat -0.014 | barasertib -0.209 | [7] 0.037 | volasertib 0.077 | [8] -0.085 | epoxomicin 0.005 | [9] 0.059 | [10] -0.006 | [11] -0.014 | rosiglitazone -0.015 | [12] 0.033 | [13] -0.099
